# Measured values taken from the supplement of paper PMC12823440, “Inhibitors supercharge kinase turnover through native proteolytic circuits” (Nature, 2025).
# Protein sequences, listed by entry. Tags and fused reporters are not part of them. Lines headed by an entry give the natural chain unless they say otherwise; changes in a name come on top.
# UniProt O14965: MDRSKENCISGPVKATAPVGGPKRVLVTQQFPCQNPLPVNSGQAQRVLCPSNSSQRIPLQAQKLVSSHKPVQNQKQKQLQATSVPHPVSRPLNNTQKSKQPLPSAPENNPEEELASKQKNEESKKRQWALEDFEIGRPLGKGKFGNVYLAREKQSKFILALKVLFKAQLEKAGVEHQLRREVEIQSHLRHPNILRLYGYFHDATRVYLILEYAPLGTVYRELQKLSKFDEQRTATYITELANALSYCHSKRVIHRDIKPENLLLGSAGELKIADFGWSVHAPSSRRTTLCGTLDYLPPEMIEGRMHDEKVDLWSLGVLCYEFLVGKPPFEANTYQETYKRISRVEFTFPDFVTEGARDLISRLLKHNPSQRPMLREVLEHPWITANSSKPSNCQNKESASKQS
# UniProt Q9UQB9: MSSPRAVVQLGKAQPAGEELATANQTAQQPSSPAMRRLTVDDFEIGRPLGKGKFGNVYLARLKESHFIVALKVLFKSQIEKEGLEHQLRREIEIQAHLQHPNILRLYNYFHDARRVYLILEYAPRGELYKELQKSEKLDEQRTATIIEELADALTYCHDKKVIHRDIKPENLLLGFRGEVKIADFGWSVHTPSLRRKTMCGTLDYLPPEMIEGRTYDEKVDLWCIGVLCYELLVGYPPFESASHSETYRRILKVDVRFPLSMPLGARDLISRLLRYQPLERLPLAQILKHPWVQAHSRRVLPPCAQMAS
# UniProt P51451: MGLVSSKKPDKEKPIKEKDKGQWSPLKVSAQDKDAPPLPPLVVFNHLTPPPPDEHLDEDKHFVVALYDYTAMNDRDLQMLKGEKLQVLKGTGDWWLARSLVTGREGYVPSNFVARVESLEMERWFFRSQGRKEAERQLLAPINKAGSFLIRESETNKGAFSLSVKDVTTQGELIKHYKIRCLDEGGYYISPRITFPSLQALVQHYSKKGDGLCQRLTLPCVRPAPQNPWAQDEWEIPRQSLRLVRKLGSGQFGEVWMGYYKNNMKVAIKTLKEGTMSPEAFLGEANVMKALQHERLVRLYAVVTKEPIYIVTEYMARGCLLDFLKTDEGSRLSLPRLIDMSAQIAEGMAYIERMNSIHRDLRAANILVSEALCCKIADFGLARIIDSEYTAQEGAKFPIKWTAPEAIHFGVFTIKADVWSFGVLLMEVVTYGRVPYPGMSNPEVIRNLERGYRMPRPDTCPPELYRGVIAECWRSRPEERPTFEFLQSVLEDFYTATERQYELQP
# UniProt P51813: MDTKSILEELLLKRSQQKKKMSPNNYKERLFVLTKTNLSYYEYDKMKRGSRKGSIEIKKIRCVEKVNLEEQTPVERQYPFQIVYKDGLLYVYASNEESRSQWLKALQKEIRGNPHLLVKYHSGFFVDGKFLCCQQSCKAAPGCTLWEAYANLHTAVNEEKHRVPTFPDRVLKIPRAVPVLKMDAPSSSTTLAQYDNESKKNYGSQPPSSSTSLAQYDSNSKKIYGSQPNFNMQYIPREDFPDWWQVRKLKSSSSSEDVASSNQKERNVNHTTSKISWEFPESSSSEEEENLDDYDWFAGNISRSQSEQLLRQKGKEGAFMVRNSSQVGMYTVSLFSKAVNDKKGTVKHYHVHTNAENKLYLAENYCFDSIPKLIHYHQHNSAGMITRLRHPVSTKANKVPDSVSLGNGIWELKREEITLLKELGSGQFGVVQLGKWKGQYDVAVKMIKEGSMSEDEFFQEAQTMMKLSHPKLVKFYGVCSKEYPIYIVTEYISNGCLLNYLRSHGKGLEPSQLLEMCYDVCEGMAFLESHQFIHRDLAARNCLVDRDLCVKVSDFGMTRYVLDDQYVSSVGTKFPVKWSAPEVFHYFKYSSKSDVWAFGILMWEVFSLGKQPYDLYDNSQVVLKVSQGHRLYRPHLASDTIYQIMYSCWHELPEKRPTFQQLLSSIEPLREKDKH
# UniProt P15056, whole entry, looked up: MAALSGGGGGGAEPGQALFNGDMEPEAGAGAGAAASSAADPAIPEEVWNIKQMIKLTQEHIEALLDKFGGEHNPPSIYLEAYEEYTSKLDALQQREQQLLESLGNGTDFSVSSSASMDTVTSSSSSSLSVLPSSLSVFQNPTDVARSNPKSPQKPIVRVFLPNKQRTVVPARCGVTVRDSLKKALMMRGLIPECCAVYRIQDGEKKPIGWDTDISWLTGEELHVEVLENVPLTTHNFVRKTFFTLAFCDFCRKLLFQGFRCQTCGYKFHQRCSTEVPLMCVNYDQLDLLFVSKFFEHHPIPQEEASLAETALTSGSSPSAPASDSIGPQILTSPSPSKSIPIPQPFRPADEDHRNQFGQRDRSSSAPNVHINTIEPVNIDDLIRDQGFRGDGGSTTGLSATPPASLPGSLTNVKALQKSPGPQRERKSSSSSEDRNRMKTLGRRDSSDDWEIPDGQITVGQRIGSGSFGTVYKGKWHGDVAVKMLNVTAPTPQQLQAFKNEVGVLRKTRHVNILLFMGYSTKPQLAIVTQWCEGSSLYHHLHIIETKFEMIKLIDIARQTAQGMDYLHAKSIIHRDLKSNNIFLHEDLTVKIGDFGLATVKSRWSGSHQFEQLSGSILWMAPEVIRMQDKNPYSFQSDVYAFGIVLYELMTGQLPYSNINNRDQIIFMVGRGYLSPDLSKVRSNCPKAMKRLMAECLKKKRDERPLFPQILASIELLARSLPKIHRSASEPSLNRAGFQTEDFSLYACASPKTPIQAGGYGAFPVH
# UniProt Q9UQM7, whole entry: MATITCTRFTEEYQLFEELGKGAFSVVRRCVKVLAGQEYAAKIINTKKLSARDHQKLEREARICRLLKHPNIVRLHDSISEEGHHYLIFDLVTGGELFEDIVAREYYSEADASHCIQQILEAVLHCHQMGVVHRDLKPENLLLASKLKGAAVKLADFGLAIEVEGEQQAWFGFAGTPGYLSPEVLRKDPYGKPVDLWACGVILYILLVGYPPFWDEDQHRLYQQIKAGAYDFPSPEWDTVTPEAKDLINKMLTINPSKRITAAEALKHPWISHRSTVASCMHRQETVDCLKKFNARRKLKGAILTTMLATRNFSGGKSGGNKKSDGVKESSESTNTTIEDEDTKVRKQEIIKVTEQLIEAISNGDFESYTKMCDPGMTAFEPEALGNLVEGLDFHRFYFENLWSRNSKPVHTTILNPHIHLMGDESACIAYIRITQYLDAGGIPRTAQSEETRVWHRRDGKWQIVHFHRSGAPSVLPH
# UniProt Q13555: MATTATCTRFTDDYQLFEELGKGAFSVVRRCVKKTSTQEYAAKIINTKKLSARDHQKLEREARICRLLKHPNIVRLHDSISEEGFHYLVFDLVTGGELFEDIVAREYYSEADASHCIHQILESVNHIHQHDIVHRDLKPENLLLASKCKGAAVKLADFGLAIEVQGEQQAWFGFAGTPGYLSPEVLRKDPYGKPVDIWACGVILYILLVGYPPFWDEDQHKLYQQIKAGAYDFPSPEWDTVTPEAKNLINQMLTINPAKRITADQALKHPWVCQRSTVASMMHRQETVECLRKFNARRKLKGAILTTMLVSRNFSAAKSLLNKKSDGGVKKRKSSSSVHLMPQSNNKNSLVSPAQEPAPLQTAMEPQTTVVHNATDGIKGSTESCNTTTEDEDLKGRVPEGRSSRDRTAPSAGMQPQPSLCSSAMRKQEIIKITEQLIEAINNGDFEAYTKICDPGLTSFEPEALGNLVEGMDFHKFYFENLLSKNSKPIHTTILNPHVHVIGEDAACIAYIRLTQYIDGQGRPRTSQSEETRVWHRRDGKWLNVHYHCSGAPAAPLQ
# UniProt Q15131: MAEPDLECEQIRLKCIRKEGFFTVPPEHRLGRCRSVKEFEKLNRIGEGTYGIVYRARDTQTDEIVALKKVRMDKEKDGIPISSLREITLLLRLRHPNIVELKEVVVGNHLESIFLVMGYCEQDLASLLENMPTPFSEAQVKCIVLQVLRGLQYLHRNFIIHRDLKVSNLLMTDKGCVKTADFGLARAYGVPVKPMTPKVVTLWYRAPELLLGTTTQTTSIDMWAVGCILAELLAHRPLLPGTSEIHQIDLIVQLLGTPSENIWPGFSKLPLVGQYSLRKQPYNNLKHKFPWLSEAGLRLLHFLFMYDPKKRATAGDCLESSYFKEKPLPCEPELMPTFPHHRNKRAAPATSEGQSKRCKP
# UniProt Q00526: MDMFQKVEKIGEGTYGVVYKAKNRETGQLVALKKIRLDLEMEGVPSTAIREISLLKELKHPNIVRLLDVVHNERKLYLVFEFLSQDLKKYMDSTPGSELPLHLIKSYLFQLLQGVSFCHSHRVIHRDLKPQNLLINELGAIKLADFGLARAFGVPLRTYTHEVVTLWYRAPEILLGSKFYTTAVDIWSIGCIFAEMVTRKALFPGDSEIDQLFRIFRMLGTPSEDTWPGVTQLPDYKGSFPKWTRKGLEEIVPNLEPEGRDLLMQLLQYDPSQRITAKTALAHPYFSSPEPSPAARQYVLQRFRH
# UniProt Q00535, whole entry, looked up: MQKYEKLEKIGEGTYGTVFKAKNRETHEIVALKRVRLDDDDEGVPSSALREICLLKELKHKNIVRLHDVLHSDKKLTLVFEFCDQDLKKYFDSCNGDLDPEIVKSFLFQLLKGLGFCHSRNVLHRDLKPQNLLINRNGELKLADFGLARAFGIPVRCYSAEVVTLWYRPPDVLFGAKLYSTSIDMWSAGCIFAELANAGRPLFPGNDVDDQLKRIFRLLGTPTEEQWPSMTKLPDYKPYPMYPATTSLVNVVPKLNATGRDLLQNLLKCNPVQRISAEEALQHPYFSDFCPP
# UniProt Q00534, whole entry: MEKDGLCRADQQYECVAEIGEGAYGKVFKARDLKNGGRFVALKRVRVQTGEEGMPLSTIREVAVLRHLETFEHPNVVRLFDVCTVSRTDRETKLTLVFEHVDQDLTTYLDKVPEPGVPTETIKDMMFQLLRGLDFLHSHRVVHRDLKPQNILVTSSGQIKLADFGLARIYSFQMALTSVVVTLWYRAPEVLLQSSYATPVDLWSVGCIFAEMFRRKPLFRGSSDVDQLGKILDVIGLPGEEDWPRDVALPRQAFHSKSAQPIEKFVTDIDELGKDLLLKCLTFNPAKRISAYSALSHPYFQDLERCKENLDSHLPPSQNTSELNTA
# UniProt O96017, whole entry: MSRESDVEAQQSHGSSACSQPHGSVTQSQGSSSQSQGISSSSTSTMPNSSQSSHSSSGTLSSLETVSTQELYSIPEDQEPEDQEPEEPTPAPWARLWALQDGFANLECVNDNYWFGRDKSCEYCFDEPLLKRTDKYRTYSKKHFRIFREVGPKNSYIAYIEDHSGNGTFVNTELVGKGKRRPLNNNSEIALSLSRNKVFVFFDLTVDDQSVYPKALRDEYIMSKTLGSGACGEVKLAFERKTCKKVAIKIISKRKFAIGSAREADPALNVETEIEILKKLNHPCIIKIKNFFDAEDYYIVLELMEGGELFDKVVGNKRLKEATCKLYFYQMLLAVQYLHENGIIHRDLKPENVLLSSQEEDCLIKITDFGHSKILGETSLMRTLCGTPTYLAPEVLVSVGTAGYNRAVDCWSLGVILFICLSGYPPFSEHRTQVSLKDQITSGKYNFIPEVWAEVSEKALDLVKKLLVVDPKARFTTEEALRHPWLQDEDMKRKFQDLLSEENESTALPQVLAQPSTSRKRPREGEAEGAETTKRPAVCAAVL
# UniProt P07333, whole entry: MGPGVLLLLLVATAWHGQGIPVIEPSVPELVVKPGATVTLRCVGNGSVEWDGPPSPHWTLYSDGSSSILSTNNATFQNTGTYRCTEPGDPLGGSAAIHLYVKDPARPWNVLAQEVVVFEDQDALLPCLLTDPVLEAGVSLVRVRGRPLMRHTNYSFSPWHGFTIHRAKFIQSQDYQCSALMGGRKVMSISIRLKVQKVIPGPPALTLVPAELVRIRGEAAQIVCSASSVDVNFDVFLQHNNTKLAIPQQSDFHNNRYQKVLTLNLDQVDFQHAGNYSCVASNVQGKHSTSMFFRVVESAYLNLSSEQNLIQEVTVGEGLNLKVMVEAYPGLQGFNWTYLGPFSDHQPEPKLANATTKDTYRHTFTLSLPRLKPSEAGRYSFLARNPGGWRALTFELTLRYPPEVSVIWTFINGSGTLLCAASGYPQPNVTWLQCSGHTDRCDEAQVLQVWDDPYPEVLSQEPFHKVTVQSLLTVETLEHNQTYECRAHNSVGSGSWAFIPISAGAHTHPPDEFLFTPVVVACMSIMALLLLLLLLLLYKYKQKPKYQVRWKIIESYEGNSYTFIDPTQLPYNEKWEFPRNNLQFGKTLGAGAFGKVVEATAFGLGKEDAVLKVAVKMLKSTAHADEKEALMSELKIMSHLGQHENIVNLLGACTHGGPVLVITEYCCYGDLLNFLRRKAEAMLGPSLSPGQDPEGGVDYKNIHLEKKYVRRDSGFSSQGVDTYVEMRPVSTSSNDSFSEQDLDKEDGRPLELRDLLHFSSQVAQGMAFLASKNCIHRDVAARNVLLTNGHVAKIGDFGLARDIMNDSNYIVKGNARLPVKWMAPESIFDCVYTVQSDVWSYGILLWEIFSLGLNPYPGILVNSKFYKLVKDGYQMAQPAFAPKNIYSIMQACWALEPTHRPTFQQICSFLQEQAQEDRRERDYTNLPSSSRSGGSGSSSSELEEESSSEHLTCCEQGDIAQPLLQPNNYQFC
# Where a name gives a salt, the structure may show the parent alone. Some of the results follow. Hit calls seldom repeat between salt and free forms of one compound.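 In K562 cells expressing nanoluciferase-fused kinases, luminescence was recorded at 4 h intervals between 2 and 18 h, normalized as percent of control with DMSO at 100% and a positive control at 0%. A significant (2 sigma) signal drop marks a time point as decreased. The authors' rule for a hit is not shown and takes in more than the number of time points.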
# Key:
# Test in all cases: number of time points (of 5) at which kinase-Nluc abundance scored as decreased, DMSO-normalised (count); higher = more persistent destabilization
# Conditions in all cases: K562; 2-18 h
# ALK = ALK (UniProt Q9UM73)
# ARAF = ARAF (UniProt P10398)
# AURKA = AURKA (UniProt O14965)
# AURKB = AURKB (UniProt Q96GD4)
# AURKC = AURKC (UniProt Q9UQB9)
# BLK = BLK (UniProt P51451)
# BMX = BMX (UniProt P51813)
# BRAF = BRAF (UniProt P15056)
# BRAF_V600E = system: BRAF_V600E
# BTK = BTK (UniProt Q06187)
# CAMK2A = CAMK2A (UniProt Q9UQM7)
# CAMK2G = CAMK2G (UniProt Q13555)
# CDK10 = CDK10 (UniProt Q15131)
# CDK2 = CDK2 (UniProt P24941)
# CDK3 = CDK3 (UniProt Q00526)
# CDK5 = CDK5 (UniProt Q00535)
# CDK6 = CDK6 (UniProt Q00534)
# CHEK2 = CHEK2 (UniProt O96017)
# CSF1R = CSF1R (UniProt P07333)
# CSK = CSK (UniProt P41240)
SMILES,number of time points (ALK),number of time points (ARAF),number of time points (AURKA),number of time points (AURKB),number of time points (AURKC),number of time points (BLK),number of time points (BMX),number of time points (BRAF),number of time points (BRAF_V600E),number of time points (BTK),number of time points (CAMK2A),number of time points (CAMK2G),number of time points (CDK10),number of time points (CDK2),number of time points (CDK3),number of time points (CDK5),number of time points (CDK6),number of time points (CHEK2),number of time points (CSF1R),number of time points (CSK)
O=C(Nc1nc2ccccc2[nH]1)c1cccc(-n2cccc2)c1 (10 µM),0,0,0,0,0,0,0,0,0,0,0,0,0,0,0,0,0,0,0,0
O=C(O)CCc1ccc(O)c(O)c1 [Dihydrocaffeic acid] (10 µM),0,0,0,0,0,0,0,0,0,0,0,0,0,0,0,0,0,0,0,0
CC(=NNC(=O)c1ccc(C)c(Br)c1)c1ccc(O)cc1O [mTOR inhibitor-1] (2.5 µM),0,0,0,0,0,0,1,0,1,0,0,0,0,0,0,0,0,0,0,0
CNCc1ccccc1-c1csc([C@@H](C)Nc2nc(C)nc3cc(OC)c(OC)cc23)c1 (2.5 µM),0,0,0,0,0,0,0,0,2,0,0,0,0,0,0,0,0,0,0,0
OC(COc1ccc(C(F)(F)F)cc1)CN(Cc1ccccc1)Cc1ccccc1 (stereo not given) (2.5 µM),0,0,0,0,0,0,0,0,0,0,0,0,0,0,0,0,0,0,0,0
N#Cc1c(-c2ccccc2)cc(-c2cc(Br)ccc2O)[nH]c1=O (10 µM),0,0,0,0,0,0,0,0,0,0,0,0,0,0,0,0,0,0,0,0
COc1cc2c[n+](C)c3c4cc5c(cc4ccc3c2cc1OC)OCO5 [Nitidine (chloride)] (2 µM),0,0,0,0,0,0,0,0,0,0,0,0,0,0,0,0,0,0,0,0
Cc1ccc(S(=O)(=O)/C=C/C#N)cc1 (10 µM),0,0,0,0,0,0,0,1,0,0,0,0,0,0,0,0,3,0,0,0
CCN(CC)S(=O)(=O)c1ccc(OC)c(N2CCN(C(=O)c3ccc(F)cc3C(F)(F)F)CC2)c1 (10 µM),0,0,0,0,0,0,0,0,0,0,0,0,0,0,0,0,0,0,0,0
Cn1cnc(-c2cc3nccc(Oc4ccc(NC(=S)NC(=O)Cc5ccccc5)cc4F)c3s2)c1 [MGCD-265 analog] (10 µM),3,1,0,0,3,0,3,3,1,0,0,0,3,0,0,0,2,0,1,0
O=C(NCCO)c1ccc2c(c1)nc(Nc1cccc(Cl)c1)c1ccncc12 [CK2 inhibitor 2] (10 µM),0,0,0,0,0,0,0,0,0,0,0,0,0,0,0,0,0,0,0,0
CCOc1cc(C(=O)N2CCC(N3CCN(C)CC3)CC2)ccc1Nc1ncc2c(n1)N(C1CCCC1)c1ccccc1C(=O)N2C (10 µM),0,0,0,0,0,0,0,0,0,0,0,0,0,0,0,0,0,0,0,0
CC/C=C\C/C=C\C/C=C\CCCCCCCC(=O)O [α-Linolenic acid] (10 µM),0,0,0,0,0,0,0,0,0,0,0,0,0,0,0,0,0,0,0,0
COc1ccc(C2CC(c3ccccc3)=NN2c2ccc(S(N)(=O)=O)cc2)cc1 (stereo not given) (10 µM),0,0,0,0,0,0,0,0,0,0,0,0,0,0,0,0,0,0,0,0
CC1CCc2nc(N)c(C#N)c(-c3cccnc3)c2C1 (stereo not given) (10 µM),0,0,0,0,0,0,0,0,0,0,0,0,0,0,0,0,0,0,0,0
C=CC(=O)Nc1ccc(CN(C(=O)Nc2c(Cl)c(OC)cc(OC)c2Cl)c2cc(Nc3ccc(N4CCN(C)CC4)cc3)ncn2)cc1 (10 µM),0,0,0,0,0,1,0,0,0,0,0,0,0,0,0,0,0,0,0,0
O=C(/C=C/c1ccc(O)c(O)c1)c1ccc(O[C@@H]2O[C@H](CO)[C@@H](O)[C@H](O)[C@H]2O)c(O)c1O [Marein] (10 µM),0,0,0,0,0,0,0,0,0,0,0,0,0,0,0,0,0,0,0,0
N#CC(c1ccnc(NCCc2cccnc2)n1)c1nc2ccccc2s1 (stereo not given) (10 µM),0,0,0,0,0,0,0,5,0,0,1,0,0,0,0,0,0,0,0,0
CC(C)NC(=O)N1CC[C@H](NC2=Nc3cc(F)ccc3N(CC(F)F)c3ccc(Cl)cc32)C1 (10 µM),0,0,0,0,0,0,0,0,0,0,0,0,0,0,0,0,0,0,0,0
COc1ncc(-c2nc(N3CCOCC3)nc3c(CN4CCC(C(C)(C)O)CC4)cc(F)cc23)cc1NS(C)(=O)=O [Linperlisib] (10 µM),0,0,0,0,0,0,0,0,0,0,0,0,0,0,0,0,0,0,0,0
C=C(CCC=C(C)C)[C@H]1CC[C@]2(C)[C@@H]1[C@H](O)C[C@@H]1[C@@]3(C)CC[C@H](O[C@@H]4O[C@H](CO)[C@@H](O)[C@H](O)[C@H]4O[C@@H]4O[C@H](CO)[C@@H](O)[C@H](O)[C@H]4O)C(C)(C)[C@@H]3CC[C@]12C [Ginsenoside Rk1] (10 µM),0,0,0,0,0,0,0,0,0,0,0,0,0,0,0,0,0,0,0,0
CN1CCN(c2ccc(C(=O)Nc3cc(-c4cccc(NS(=O)(=O)c5ccccc5)c4)[nH]n3)cc2)CC1 [BPR1J-097 Hydrochloride] (2.5 µM),0,0,0,0,0,0,0,0,0,0,0,0,0,0,0,0,0,0,0,0
Nc1nccc(Oc2ccc(NC(=O)c3cn(COP(=O)(O)O)cc(-c4ccc(F)cc4)c3=O)cc2F)c1Cl (10 µM),0,0,0,0,0,2,1,0,1,0,0,0,0,0,0,0,0,0,0,0
Cc1ccc(NC(=S)NNc2c([N+](=O)[O-])cc(C(F)(F)F)cc2[N+](=O)[O-])cc1Cl (10 µM),0,0,0,0,0,0,0,0,0,0,0,0,0,0,0,0,0,0,0,0

# Sorted by heavy-atom count (low to high): part of the list above
SMILES,number of time points (ALK),number of time points (ARAF),number of time points (AURKA),number of time points (AURKB),number of time points (AURKC),number of time points (BLK),number of time points (BMX),number of time points (BRAF),number of time points (BRAF_V600E),number of time points (BTK),number of time points (CAMK2A),number of time points (CAMK2G),number of time points (CDK10),number of time points (CDK2),number of time points (CDK3),number of time points (CDK5),number of time points (CDK6),number of time points (CHEK2),number of time points (CSF1R),number of time points (CSK)
N#Cc1c(-c2ccccc2)cc(-c2cc(Br)ccc2O)[nH]c1=O (10 µM),0,0,0,0,0,0,0,0,0,0,0,0,0,0,0,0,0,0,0,0
Cn1cnc(-c2cc3nccc(Oc4ccc(NC(=S)NC(=O)Cc5ccccc5)cc4F)c3s2)c1 [MGCD-265 analog] (10 µM),3,1,0,0,3,0,3,3,1,0,0,0,3,0,0,0,2,0,1,0
CN1CCN(c2ccc(C(=O)Nc3cc(-c4cccc(NS(=O)(=O)c5ccccc5)c4)[nH]n3)cc2)CC1 [BPR1J-097 Hydrochloride] (2.5 µM),0,0,0,0,0,0,0,0,0,0,0,0,0,0,0,0,0,0,0,0
